PubChem BioAssay AID330 (DTP/NCI, 2004)
The list is a part of this screen's results and no random one: it is rich in T/C values a quarter to a half above the control, in often repeated tests (any T/C) and in doses without a T/C. Further doses and runs are listed elsewhere. T/C gives the treated animals as a percentage of the vehicle group. Some doses have a count of surviving animals in place of a T/C: the source files T/C as zero there, which appears to mark a toxic dose or a test without result, not a measured value. Some doses without a T/C left all or most animals alive at the check, yet need not have been tolerated: survival well below the control is almost never listed, so the zero probably covers shortened survival too. Survivors were counted at the toxicity check, usually on the fifth day, unless a day is given; later deaths do not show. Schedule codes are those of the source, taken here to give the interval after Q, in days (D) or hours (H), and the number of doses after X. Some entries hold several experiments; the values are given in rising order. Where survival is the endpoint, this PubChem deposit counts one and a half times the control or more as active, and values a quarter to a half above the control carry no call in these data; other NCI protocols may use other cut-offs. Some T/C values carry the count of animals alive at the toxicity check (mostly the fifth day); where none is given, no animal had died by that day.

Test system: P388 leukemia ip, CD2F1 mice, survival T/C
Test: NCI In Vivo Anticancer Drug Screen. Data for tumor model P388 Leukemia (intraperitoneal) in CD2F1 (CDF1) mice
Details: T/C endpoint: median survival time, higher T/C = longer survival
[1] = dose: 60.0 mg/kg/injection, schedule: Q01DX001 (ip), vehicle: alkali diluted with saline
[2] = dose: 100.0 mg/kg/injection, schedule: Q01DX009 (ip), vehicle: saline

Question: Which T/C (dose: 0.25 mg/kg/injection, schedule: Q01DX009 (ip), vehicle: alkali diluted with saline) does the source give for `Nc1nc(=S)c2[nH]cnc2[nH]1` here?
Answer: Its T/C is 128 % of control.

Question: And the T/C (dose: 0.38 mg/kg/injection, schedule: Q01DX009 (ip), vehicle: acid diluted with saline)?
Answer: The T/C was 126 % of control.

Question: And the T/C (dose: 0.38 mg/kg/injection, schedule: Q01DX009 (ip), vehicle: alkali diluted with saline)?
Answer: The T/C was 127 % of control.

Question: And the T/C (dose: 0.5 mg/kg/injection, schedule: Q01DX009 (ip), vehicle: acid diluted with saline)?
Answer: Its T/C is 126 % of control.

Question: What about the T/C (dose: 0.5 mg/kg/injection, schedule: Q01DX009 (ip), vehicle: alkali diluted with saline) of the same compound?
Answer: The T/C was 128 % of control.

Question: And the T/C (dose: 0.52 mg/kg/injection, schedule: Q01DX009 (ip), vehicle: acid diluted with saline)?
Answer: The T/C was 129 and 131 % of control.

Question: And the T/C (dose: 0.75 mg/kg/injection, schedule: Q01DX009 (ip), vehicle: acid diluted with saline)?
Answer: Its T/C is 129 % of control.

Question: And the T/C (dose: 0.76 mg/kg/injection, schedule: Q01DX009 (ip), vehicle: alkali diluted with saline)?
Answer: The T/C was 133 % of control.

Question: What about the T/C (dose: 0.86 mg/kg/injection, schedule: Q01DX009 (ip), vehicle: acid diluted with saline) of the same compound?
Answer: Its T/C is 134 [6 of 7 alive] and 140 % of control.

Question: What about the T/C (dose: 0.96 mg/kg/injection, schedule: Q01DX009 (ip), vehicle: alkali diluted with saline) of the same compound?
Answer: Its T/C is 136 % of control.

Question: And the T/C (dose: 1.0 mg/kg/injection, schedule: Q01DX009 (ip), vehicle: acid diluted with saline)?
Answer: Its T/C is 133 % of control.

Question: And the T/C (dose: 1.0 mg/kg/injection, schedule: Q01DX009 (ip), vehicle: alkali diluted with saline, evaluated on day 30)?
Answer: Its T/C is 126 and 145 % of control.

Question: And the T/C (dose: 1.0 mg/kg/injection, schedule: Q01DX009 (ip), vehicle: alkali diluted with saline, evaluated on day 45)?
Answer: The T/C was 130 and 141 % of control.

Question: And the T/C (dose: 1.2 mg/kg/injection, schedule: Q01DX009 (ip), vehicle: alkali diluted with saline)?
Answer: The T/C was 146 % of control.

Question: What about the T/C (dose: 1.25 mg/kg/injection, schedule: Q01DX009 (ip), vehicle: alkali diluted with saline) of the same compound?
Answer: Its T/C is 143 % of control.

Question: And the T/C (dose: 1.44 mg/kg/injection, schedule: Q01DX009 (ip), vehicle: acid diluted with saline)?
Answer: Its T/C is 148 % of control.

Question: And the T/C (dose: 1.5 mg/kg/injection, schedule: Q01DX005 (ip), vehicle: alkali diluted with saline)?
Answer: The T/C was 135 and 135 % of control [5 of 6 alive].

Question: What about the T/C (dose: 1.5 mg/kg/injection, schedule: Q01DX009 (ip), vehicle: alkali diluted with saline) of the same compound?
Answer: The T/C was 138 and 143 % of control.

Question: And the T/C (dose: 1.75 mg/kg/injection, schedule: Q01DX009 (ip), vehicle: alkali diluted with saline)?
Answer: Its T/C is 137 % of control.

Question: And the T/C (dose: 2.0 mg/kg/injection, schedule: Q01DX009 (ip), vehicle: acid diluted with saline)?
Answer: Its T/C is 136 % of control.

Question: What about the T/C (dose: 2.0 mg/kg/injection, schedule: Q01DX009 (ip), vehicle: alkali diluted with saline, evaluated on day 30) of the same compound?
Answer: Its T/C is 151 and 166 % of control.

Question: What about the T/C (dose: 2.0 mg/kg/injection, schedule: Q01DX009 (ip), vehicle: alkali diluted with saline, evaluated on day 45) of the same compound?
Answer: Its T/C is 126 and 135 % of control.

Question: And the T/C (dose: 2.9 mg/kg/injection, schedule: Q01DX009 (ip), vehicle: saline)?
Answer: Its T/C is 145 % of control.

Question: What about the T/C (dose: 3.0 mg/kg/injection, schedule: Q01DX005 (ip), vehicle: alkali diluted with saline, evaluated on day 5) of the same compound?
Answer: Its T/C is 132 % of control.

Question: And the T/C (dose: 3.0 mg/kg/injection, schedule: Q01DX005 (ip), vehicle: alkali diluted with saline, evaluated on day 45)?
Answer: The T/C was 142 and 148 % of control.

Question: What about the T/C (dose: 3.0 mg/kg/injection, schedule: Q01DX009 (ip), vehicle: acid diluted with saline) of the same compound?
Answer: The T/C was 134 % of control.

Question: And the T/C (dose: 4.0 mg/kg/injection, schedule: Q01DX005 (ip), vehicle: alkali diluted with saline)?
Answer: Its T/C is 138 % of control.

Question: What about the T/C (dose: 4.0 mg/kg/injection, schedule: Q01DX009 (ip), vehicle: acid diluted with saline, evaluated on day 5) of the same compound?
Answer: Its T/C is 128 and 170 % of control.

Question: And the T/C (dose: 4.0 mg/kg/injection, schedule: Q01DX009 (ip), vehicle: acid diluted with saline, evaluated on day 30)?
Answer: The T/C was 104 and 140 % of control.

Question: What about the T/C (dose: 4.0 mg/kg/injection, schedule: Q01DX009 (ip), vehicle: alkali diluted with saline) of the same compound?
Answer: Its T/C is 135 and 140 % of control.

Question: What about the T/C (dose: 4.0 mg/kg/injection, schedule: Q04DX003 (ip), vehicle: alkali diluted with saline) of the same compound?
Answer: Its T/C is 137 % of control.

Question: What about the T/C (dose: 5.4 mg/kg/injection, schedule: Q04DX003 (ip), vehicle: acid diluted with saline) of the same compound?
Answer: The T/C was 127 % of control.

Question: And the T/C (dose: 6.0 mg/kg/injection, schedule: Q01DX005 (ip), vehicle: alkali diluted with saline, evaluated on day 5)?
Answer: The T/C was 137 % of control.

Question: What about the T/C (dose: 6.0 mg/kg/injection, schedule: Q01DX005 (ip), vehicle: alkali diluted with saline, evaluated on day 45) of the same compound?
Answer: The T/C was 140 % of control.

Question: What about the T/C (dose: 6.75 mg/kg/injection, schedule: Q01DX009 (ip), vehicle: saline) of the same compound?
Answer: Its T/C is 127 % of control.

Question: And the T/C (dose: 8.0 mg/kg/injection, schedule: Q01DX005 (ip), vehicle: alkali diluted with saline)?
Answer: The T/C was 147 % of control.

Question: What about the T/C (dose: 8.0 mg/kg/injection, schedule: Q04DX003 (ip), vehicle: alkali diluted with saline) of the same compound?
Answer: Its T/C is 136 % of control.

Question: And the T/C (dose: 9.0 mg/kg/injection, schedule: Q04DX003 (ip), vehicle: acid diluted with saline, evaluated on day 5)?
Answer: Its T/C is 139 % of control.

Question: What about the T/C (dose: 9.0 mg/kg/injection, schedule: Q04DX003 (ip), vehicle: acid diluted with saline, evaluated on day 30) of the same compound?
Answer: The T/C was 144 % of control.

Question: And the T/C (dose: 10.0 mg/kg/injection, schedule: Q04DX003 (ip), vehicle: alkali diluted with saline)?
Answer: The T/C was 135 % of control.

Question: What about the T/C (dose: 12.0 mg/kg/injection, schedule: Q01DX005 (ip), vehicle: alkali diluted with saline, evaluated on day 5) of the same compound?
Answer: The T/C was 131 % of control.

Question: And the T/C (dose: 12.0 mg/kg/injection, schedule: Q01DX005 (ip), vehicle: alkali diluted with saline, evaluated on day 45)?
Answer: Its T/C is 140 % of control.

Question: What about the T/C (dose: 15.0 mg/kg/injection, schedule: Q04DX003 (ip), vehicle: acid diluted with saline) of the same compound?
Answer: Its T/C is 143 % of control.

Question: What about the T/C (dose: 16.0 mg/kg/injection, schedule: Q04DX003 (ip), vehicle: alkali diluted with saline) of the same compound?
Answer: Its T/C is 134 % of control.

Question: What about the T/C (dose: 18.0 mg/kg/injection, schedule: Q04DX003 (ip), vehicle: acid diluted with saline) of the same compound?
Answer: Its T/C is 136 % of control.

Question: And the T/C (dose: 25.0 mg/kg/injection, schedule: Q04DX003 (ip), vehicle: acid diluted with saline)?
Answer: Its T/C is 134 % of control.

Question: And the T/C (dose: 30.0 mg/kg/injection, schedule: Q01DX001 (ip), vehicle: alkali diluted with saline, evaluated on day 5)?
Answer: The T/C was 125 and 128 % of control.

Question: And the T/C (dose: 30.0 mg/kg/injection, schedule: Q01DX001 (ip), vehicle: alkali diluted with saline, evaluated on day 45)?
Answer: Its T/C is 131 [9 of 10 alive] and 136 % of control.

Question: What about the T/C (dose: 32.0 mg/kg/injection, schedule: Q04DX003 (ip), vehicle: alkali diluted with saline) of the same compound?
Answer: The T/C was 140 % of control.

Question: What about the T/C (dose: 40.0 mg/kg/injection, schedule: Q01DX001 (ip), vehicle: alkali diluted with saline, evaluated on day 5) of the same compound?
Answer: The T/C was 118 [8 of 9 alive] and 140 % of control.

Question: And the T/C (dose: 40.0 mg/kg/injection, schedule: Q01DX001 (ip), vehicle: alkali diluted with saline, evaluated on day 45)?
Answer: The T/C was 138 and 141 % of control.

Question: What about the T/C (dose: 40.0 mg/kg/injection, schedule: Q04DX003 (ip), vehicle: alkali diluted with saline) of the same compound?
Answer: Its T/C is 128 % of control [6 of 8 alive].

Question: What about the T/C (dose: 50.0 mg/kg/injection, schedule: Q01DX001 (ip), vehicle: alkali diluted with saline, evaluated on day 5) of the same compound?
Answer: The T/C was 128 [8 of 9 alive] and 145 % of control.

Question: And the T/C (dose: 50.0 mg/kg/injection, schedule: Q01DX001 (ip), vehicle: alkali diluted with saline, evaluated on day 45)?
Answer: Its T/C is 139 [7 of 10 alive] and 144 % of control.

Question: What about the T/C [1] of the same compound?
Answer: The T/C was 132 % of control [6 of 8 alive].

Question: What about the survivor count [1] of the same compound?
Answer: Its survivor count is 2 of 4 and 6 of 10.

Question: What about the T/C (dose: 70.0 mg/kg/injection, schedule: Q01DX001 (ip), vehicle: alkali diluted with saline) of the same compound?
Answer: The T/C was 142 % of control [9 of 10 alive].

Question: Which survivor count (dose: 50.0 mg/kg/injection, schedule: Q01DX009 (ip), vehicle: saline) does the source give for `CC(=O)Cc1c(-c2ccccc2)nc(=S)[nH]c1C` here?
Answer: Its survivor count is 6 of 6.

Question: And the survivor count [2]?
Answer: The survivor count was 6 of 6.

Question: Which results are given for `CCCCN(CCCC)C(=N)c1cc(OC)ccc1OC`?
Answer: survivor count (dose: 12.5 mg/kg/injection, schedule: Q01DX005 (ip), vehicle: saline): 2 of 5; survivor count (dose: 50.0 mg/kg/injection, schedule: Q01DX005 (ip), vehicle: saline): 0 of 5; survivor count (dose: 100.0 mg/kg/injection, schedule: Q01DX005 (ip), vehicle: saline): 0 of 5; survivor count (dose: 200.0 mg/kg/injection, schedule: Q01DX005 (ip), vehicle: saline): 0 of 5

Question: For `CC1N2CCc3ccccc3C2C2c3ccccc3CCN21` (configuration not stated), which survivor count (dose: 100.0 mg/kg/injection, schedule: Q01DX001 (ip), vehicle: suspension in saline) is on record?
Answer: Its survivor count is 0 of 6.

Question: And the survivor count (dose: 200.0 mg/kg/injection, schedule: Q01DX001 (ip), vehicle: suspension in saline)?
Answer: Its survivor count is 0 of 6.

Question: For `CCc1c(C#N)c(S)[nH]c(=S)c1C#N`, which survivor count [2] is on record?
Answer: The survivor count was 3 of 6.

Question: What about the survivor count (dose: 200.0 mg/kg/injection, schedule: Q01DX009 (ip), vehicle: saline) of the same compound?
Answer: Its survivor count is 0 of 6.
